The values that follow come from US20220186232A1.

These are yes or no findings as the source states them, for the method shown. Some entries that bind do so weakly or less than the wild type.

The assay concerns the target T1, mouse IL-10 receptor (IL-10R) on mouse CD4 T cells (mouse) (UniProt Q61727).
T1 sequence (looked up): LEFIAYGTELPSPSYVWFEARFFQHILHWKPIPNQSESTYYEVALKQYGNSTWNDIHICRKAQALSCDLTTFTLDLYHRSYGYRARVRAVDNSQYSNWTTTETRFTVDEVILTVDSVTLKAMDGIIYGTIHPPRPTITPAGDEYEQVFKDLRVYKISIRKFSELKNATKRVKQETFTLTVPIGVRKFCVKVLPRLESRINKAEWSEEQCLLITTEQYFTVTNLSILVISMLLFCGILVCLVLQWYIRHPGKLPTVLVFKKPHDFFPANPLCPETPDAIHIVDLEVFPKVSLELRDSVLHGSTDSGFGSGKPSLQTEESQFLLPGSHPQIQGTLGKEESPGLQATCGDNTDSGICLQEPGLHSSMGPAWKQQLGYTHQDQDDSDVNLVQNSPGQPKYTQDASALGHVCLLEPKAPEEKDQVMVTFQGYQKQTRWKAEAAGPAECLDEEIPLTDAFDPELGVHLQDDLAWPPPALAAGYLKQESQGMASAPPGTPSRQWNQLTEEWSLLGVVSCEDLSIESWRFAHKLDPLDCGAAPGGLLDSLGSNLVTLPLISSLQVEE
The experiment in a line: flow cytometry, mouse CD4 T cells transfected with mouse memIL-10 mRNA; binding inferred from blocked antibody staining. For orientation: Flow cytometry measures light scatter and fluorescence of single cells or particles in a stream.

With “mouse membrane-anchored homodimeric IL-10 (mouse memIL-10), short linker (from UniProt P18893 19-178; P18893 19-178) (ligand)”, the binding result is on record as “binds”.
